We go through 20 compounds from PubChem BioAssay AID330 (DTP/NCI, 2004).

In the experiment the test system is P388 leukemia ip, CD2F1 mice, survival T/C. Briefly: NCI In Vivo Anticancer Drug Screen. Data for tumor model P388 Leukemia (intraperitoneal) in CD2F1 (CDF1) mice. To be noted: T/C endpoint: median survival time, higher T/C = longer survival.
Setting [1] is: dose: 50.0 mg/kg/injection, schedule: Q01DX005 (ip), vehicle: saline with Tween-80.
[2] abbreviates: dose: 100.0 mg/kg/injection, schedule: Q01DX005 (ip), vehicle: saline with Tween-80.
Where [3] appears, read: dose: 200.0 mg/kg/injection, schedule: Q01DX005 (ip), vehicle: saline with Tween-80.
The mark [4] stands for this setting: dose: 200.0 mg/kg/injection, schedule: Q01DX009 (ip), vehicle: saline with Tween-80.
[5] abbreviates: dose: 400.0 mg/kg/injection, schedule: Q01DX009 (ip), vehicle: saline with Tween-80.
Where [6] appears, read: dose: 400.0 mg/kg/injection, schedule: Q04DX002 (ip), vehicle: Klucel (hydroxypropylcellulose) (HPC).
The mark [7] stands for this setting: dose: 50.0 mg/kg/injection, schedule: Q01DX005 (ip), vehicle: Klucel (hydroxypropylcellulose) (HPC).
The mark [8] stands for this setting: dose: 100.0 mg/kg/injection, schedule: Q01DX005 (ip), vehicle: Klucel (hydroxypropylcellulose) (HPC).
[9] abbreviates: dose: 200.0 mg/kg/injection, schedule: Q01DX005 (ip), vehicle: Klucel (hydroxypropylcellulose) (HPC).

Structures are written as SMILES. The list does not hold the whole screen: it gathers tests that were run many times, whatever their T/C, doses with no T/C, and many T/C values between a quarter and a half above the control. Other doses and runs of a compound stand elsewhere. T/C: endpoint of the treated group in % of that of the vehicle group. Some doses have a count of surviving animals in place of a T/C: the source holds a T/C of zero for them, seemingly a mark for toxic or unscored doses. Some survivor counts are full or nearly so, which does not show that the dose was tolerated: the source hardly ever lists a survival T/C far under the control, and the zero likely stands for such cases as well. Counts of survivors are from the toxicity check (mostly the fifth day) where no day follows; animals may have died later. Schedule codes are those of the source, read here as Q, the interval in days (D) or hours (H), X, the number of doses. Some entries hold several experiments; the values are given in rising order. For survival time, the PubChem record calls one and a half times the control and up active, and a quarter to a half above the control has no call in these data; cut-offs in other NCI protocols can differ. Some T/C values are followed by the survivors on the day toxicity was checked, most often the fifth; where none is given, no animal had died by that day.

Regarding `Nc1c(SSc2ccc3ccccc3c2N)ccc2ccccc12`, the survivor count is listed as 6 of 6 (dose: 50.0 mg/kg/injection, schedule: Q01DX001 (ip), vehicle: Klucel (hydroxypropylcellulose) (HPC)); 6 of 6 (dose: 100.0 mg/kg/injection, schedule: Q01DX001 (ip), vehicle: Klucel (hydroxypropylcellulose) (HPC)); 6 of 6 (dose: 200.0 mg/kg/injection, schedule: Q01DX001 (ip), vehicle: Klucel (hydroxypropylcellulose) (HPC)).

`O=C(NC1CCCCC1)OCC1OC(n2cnc3c(=O)[nH]cnc32)C(OC(=O)NC2CCCCC2)C1OC(=O)NC1CCCCC1` (centres undefined): the survivor count is, setting by setting: under setting [1], 5 of 5; under setting [2], 4 of 5; under setting [3], 5 of 5.

On to `CCN(CC)CCNc1ccc(N)c2sc3ccccc3c(=O)c12`, for which, under setting [4], the T/C was 125 % of control [5 of 6 alive] and the survivor count is 4 of 6. The survivor count under setting [5] is reported as 0 of 6.

Regarding `O=[N+]([O-])c1c(Sc2ncccn2)ncnc1Sc1ncccn1`, the survivor count (dose: 50.0 mg/kg/injection, schedule: Q01DX009 (ip), vehicle: saline) was 5 of 6; the survivor count (dose: 100.0 mg/kg/injection, schedule: Q01DX009 (ip), vehicle: saline) was 1 of 6; the survivor count (dose: 200.0 mg/kg/injection, schedule: Q01DX009 (ip), vehicle: saline) is 0 of 6.

For the compound `NCC[Se]CC(N)C(=O)O` (centres undefined), the survivor count (dose: 100.0 mg/kg/injection, schedule: Q04DX002 (ip), vehicle: saline) is on record as 3 of 6; the survivor count (dose: 200.0 mg/kg/injection, schedule: Q04DX002 (ip), vehicle: saline) is reported as 1 of 6; the survivor count (dose: 400.0 mg/kg/injection, schedule: Q04DX002 (ip), vehicle: saline) is 1 of 6.

As for `O=C1CCCC1C(=O)c1ccccc1.O=C1CCCC1C(=O)c1ccccc1.[Cu]` (centres undefined), the survivor count (dose: 200.0 mg/kg/injection, schedule: Q01DX009 (ip), vehicle: Klucel (hydroxypropylcellulose) (HPC)) is reported as 0 of 6.

On to `CC(=O)C(CSC(=O)c1ccccc1)C(C)=O`, for which the survivor count under setting [6] is listed as 0 of 6.

As to `Cc1ccc[n+](Cc2ccccc2Cl)c1`, the survivor count by setting is: under setting [7], 0 of 6; under setting [8], 0 of 6; under setting [9], 0 of 6.

As to `O=C(O)C1C(CCl)=C1CCl`, under “dose: 240.0 mg/kg/injection, schedule: Q01DX005 (ip), vehicle: Klucel (hydroxypropylcellulose) (HPC)”, the survivor count is on record as 3 of 6.

For the compound `C=C(C)C1CC2(C)C(C)C(OC(=O)/C(C)=C\C)CCC2C(O)C1=O` (centres undefined), the survivor count was 1 of 6 (dose: 60.0 mg/kg/injection, schedule: Q04DX002 (ip), vehicle: distilled water + alcohol); 0 of 6 (dose: 115.0 mg/kg/injection, schedule: Q04DX002 (ip), vehicle: distilled water + alcohol); 0 of 6 (dose: 230.0 mg/kg/injection, schedule: Q04DX002 (ip), vehicle: distilled water + alcohol).

As for `CCCCCCCC[N+](C)(C)CC#CC[N+](C)(C)CCCCCCCC`, the survivor count is 0 of 6 and 4 of 6 (dose: 25.0 mg/kg/injection, schedule: Q04DX003 (ip), vehicle: saline); 0 of 6 (dose: 50.0 mg/kg/injection, schedule: Q04DX003 (ip), vehicle: saline); 0 of 6 (dose: 100.0 mg/kg/injection, schedule: Q04DX003 (ip), vehicle: saline); 0 of 6 (dose: 200.0 mg/kg/injection, schedule: Q04DX003 (ip), vehicle: saline); 0 of 6 (dose: 400.0 mg/kg/injection, schedule: Q04DX003 (ip), vehicle: saline).

For the compound `CCOC(=O)c1ccc(N2N=C3C(=CC(=O)c4ccccc43)SCC2=O)cc1`, the survivor count under setting [1] is recorded as 5 of 5, the survivor count under setting [2] is 0 of 6 and the survivor count under setting [3] is 0 of 6.

Consider `CC1OC(OC2CC(O)(C(=O)CO)Cc3c(O)c4c(c(O)c32)C(=O)c2ccccc2C4=O)CC(N)C1O` (centres undefined), for which the T/C (dose: 0.03 mg/kg/injection, schedule: Q01DX009 (ip), vehicle: water) is 137 % of control; the T/C (dose: 0.13 mg/kg/injection, schedule: Q04DX003 (ip), vehicle: water) was 128 % of control; the T/C (dose: 0.5 mg/kg/injection, schedule: Q04DX003 (ip), vehicle: water) was 128 % of control; the T/C (dose: 1.0 mg/kg/injection, schedule: Q04DX003 (ip), vehicle: water) was 143 % of control; the T/C (dose: 1.8 mg/kg/injection, schedule: Q01DX001 (ip), vehicle: water) was 135 % of control; the T/C (dose: 4.0 mg/kg/injection, schedule: Q04DX003 (ip), vehicle: water) is 146 % of control. Moreover, the survivor count (dose: 1.56 mg/kg/injection, schedule: Q01DX009 (ip), vehicle: water) was 5 of 6 and 6 of 6; the survivor count (dose: 3.13 mg/kg/injection, schedule: Q01DX009 (ip), vehicle: water) is 3 of 6 and 4 of 6; the survivor count (dose: 4.2 mg/kg/injection, schedule: Q01DX001 (ip), vehicle: water) was 6 of 6; the survivor count (dose: 5.6 mg/kg/injection, schedule: Q01DX001 (ip), vehicle: water) is listed as 4 of 6; the survivor count (dose: 6.25 mg/kg/injection, schedule: Q01DX009 (ip), vehicle: water) is 1 of 6; the survivor count (dose: 7.5 mg/kg/injection, schedule: Q01DX001 (ip), vehicle: water) was 3 of 6. In addition, the survivor count is, setting by setting: (dose: 10.0 mg/kg/injection, schedule: Q01DX001 (ip), vehicle: water) 2 of 6; (dose: 12.5 mg/kg/injection, schedule: Q01DX009 (ip), vehicle: water) 2 of 6; (dose: 25.0 mg/kg/injection, schedule: Q01DX009 (ip), vehicle: water) 0 of 6.

As for `C[CH2][Sn]1([Cl])[O]CCNCC[O]1`, the T/C is 125 % of control under setting [8] and 129 % of control under setting [9].

For the compound `CCC(=O)OCc1c(Cl)nc2n1CCS2`, the survivor count (dose: 400.0 mg/kg/injection, schedule: Q01DX001 (ip), vehicle: Klucel (hydroxypropylcellulose) (HPC)) was 2 of 6.

Turning to `Nc1nc2c(c(=O)[nH]1)NC(CCNc1ccc(C(=O)NC(CCC(=O)O)C(=O)O)cc1)CN2` (centres undefined), the T/C was 127 % of control (dose: 100.0 mg/kg/injection, schedule: Q01DX009 (ip), vehicle: saline with Tween-80) and 131 % of control [5 of 6 alive] under setting [4]. Further, the survivor count runs as follows: (dose: 200.0 mg/kg/injection, schedule: Q01DX009 (ip), vehicle: saline sonified) 5 of 6; under setting [4], 4 of 6; (dose: 400.0 mg/kg/injection, schedule: Q01DX009 (ip), vehicle: saline sonified) 2 of 6; under setting [5], 0 of 6.

As for `CC(C)(C)SC(=O)CC1(O)CCCCC1`, the survivor count (dose: 100.0 mg/kg/injection, schedule: Q04DX002 (ip), vehicle: Klucel (hydroxypropylcellulose) (HPC)) is 0 of 6; the survivor count (dose: 200.0 mg/kg/injection, schedule: Q04DX002 (ip), vehicle: Klucel (hydroxypropylcellulose) (HPC)) was 4 of 6; the survivor count under setting [6] was 0 of 6.

With `COc1ccc(-c2cc3cc(CCCOC4OC(COC5OCC(O)C(O)C5O)C(O)C(O)C4O)cc(OC)c3o2)cc1OC` (centres undefined), the survivor count is on record as 6 of 6 (dose: 75.0 mg/kg/injection, schedule: Q01DX005 (ip), vehicle: Klucel (hydroxypropylcellulose) (HPC)) and 6 of 6 (dose: 150.0 mg/kg/injection, schedule: Q01DX005 (ip), vehicle: Klucel (hydroxypropylcellulose) (HPC)).

With `O=C1NC(c2cccc3c2OCO3)N=C2Oc3ccccc3C=C12` (centres undefined), the T/C under setting [4] was 136 % of control.

In the case of `C=C(C)C(=NC1CCCCC1)NC(C)(C)C`, the survivor count under setting [7] was 5 of 5 and the survivor count under setting [9] was 2 of 5.
